These are yes or no findings as the source states them, for the method shown. Binding seen in cells or lysates may run through a third protein. Some entries that bind do so weakly or less than the wild type. For part of these data: Sequences can lack the tags named with a protein. Values belong to the binder of their own block, whether it stands above or below them.
Experiments:
GFP-SUV39H1 = biological target: T1, GFP-SUV39H1 (UniProt O54864); assay: co-IP; GFP-trap Dynabeads immunoprecipitation from Suv39h dn mESCs expressing GFP-SUV39H1 or GFP-SUV39H2; immunoblot with GFP and FOXD3 antibodies
T1 sequence: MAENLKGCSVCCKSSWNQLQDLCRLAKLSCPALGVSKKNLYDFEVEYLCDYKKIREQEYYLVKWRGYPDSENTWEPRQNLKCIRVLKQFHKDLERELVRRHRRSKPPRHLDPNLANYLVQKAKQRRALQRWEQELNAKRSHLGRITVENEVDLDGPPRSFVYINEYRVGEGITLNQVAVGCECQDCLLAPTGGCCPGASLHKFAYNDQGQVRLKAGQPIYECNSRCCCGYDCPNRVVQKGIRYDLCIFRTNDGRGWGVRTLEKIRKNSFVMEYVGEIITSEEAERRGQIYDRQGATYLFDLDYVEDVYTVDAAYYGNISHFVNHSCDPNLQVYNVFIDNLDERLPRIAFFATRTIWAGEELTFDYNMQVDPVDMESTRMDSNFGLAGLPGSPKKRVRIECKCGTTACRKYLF

The chains behind the UniProt entries cited, without tags or fusion partners.
UniProt Q9EQQ0: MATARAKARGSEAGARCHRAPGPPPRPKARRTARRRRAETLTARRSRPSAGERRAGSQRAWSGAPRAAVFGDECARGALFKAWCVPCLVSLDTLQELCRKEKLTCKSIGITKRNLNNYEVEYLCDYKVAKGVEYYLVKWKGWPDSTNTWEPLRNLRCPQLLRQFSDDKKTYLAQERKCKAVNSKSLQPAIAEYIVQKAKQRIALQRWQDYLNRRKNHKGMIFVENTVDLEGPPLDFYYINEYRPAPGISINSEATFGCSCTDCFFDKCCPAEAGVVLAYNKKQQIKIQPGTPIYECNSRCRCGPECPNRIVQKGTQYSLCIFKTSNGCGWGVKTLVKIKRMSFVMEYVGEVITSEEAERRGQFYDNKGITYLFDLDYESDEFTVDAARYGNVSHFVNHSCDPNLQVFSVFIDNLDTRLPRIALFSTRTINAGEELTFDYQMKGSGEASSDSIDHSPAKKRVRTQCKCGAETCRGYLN

GFP-SUV39H2 = GFP-SUV39H2 (UniProt Q9EQQ0); assay: as above
[1] = biological target: T2, GFP-FOXD3 (wild-type, full-length) (mouse) (UniProt Q61060); assay: co-IP; GFP-trap Dynabeads immunoprecipitation from Foxd3 cKO mESCs expressing GFP-FOXD3; immunoblot with SUV39H1, SETDB1 and GFP antibodies
T2 sequence: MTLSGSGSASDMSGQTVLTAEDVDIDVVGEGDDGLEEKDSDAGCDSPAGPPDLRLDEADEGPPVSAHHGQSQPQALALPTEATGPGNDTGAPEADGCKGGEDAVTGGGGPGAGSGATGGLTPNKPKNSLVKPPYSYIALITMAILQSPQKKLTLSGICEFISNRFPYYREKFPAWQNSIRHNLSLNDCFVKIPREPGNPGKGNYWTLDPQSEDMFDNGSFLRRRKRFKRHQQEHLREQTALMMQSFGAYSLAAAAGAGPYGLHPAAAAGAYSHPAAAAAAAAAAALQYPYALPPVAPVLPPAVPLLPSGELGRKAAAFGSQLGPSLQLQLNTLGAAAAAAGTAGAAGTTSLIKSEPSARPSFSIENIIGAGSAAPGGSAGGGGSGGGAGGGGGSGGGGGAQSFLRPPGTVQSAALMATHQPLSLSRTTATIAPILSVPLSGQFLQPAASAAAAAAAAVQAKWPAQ

binding (GFP-SUV39H1): binds | binding (GFP-SUV39H2): binds
B1: FOXD3 (endogenous, in Suv39h dn mESCs) (protein, UniProt Q61060 1-465)
chain: T2 sequence

binding [1]: binds
B2: SUV39H1 (endogenous, in Foxd3 cKO mESCs) (enzyme, UniProt O54864 1-412)
chain: T1 sequence

From publication PMC8647145, “Foxd3 controls heterochromatin‐mediated repression of repeat elements and 2‐cell state transcription”
